# Experimental data published in PubChem BioAssay (Tox21).
# Amino acid sequences for entries named in this document (tags omitted). A change or cut given only in a name is not applied to a line headed by its entry.
# UniProt P11229: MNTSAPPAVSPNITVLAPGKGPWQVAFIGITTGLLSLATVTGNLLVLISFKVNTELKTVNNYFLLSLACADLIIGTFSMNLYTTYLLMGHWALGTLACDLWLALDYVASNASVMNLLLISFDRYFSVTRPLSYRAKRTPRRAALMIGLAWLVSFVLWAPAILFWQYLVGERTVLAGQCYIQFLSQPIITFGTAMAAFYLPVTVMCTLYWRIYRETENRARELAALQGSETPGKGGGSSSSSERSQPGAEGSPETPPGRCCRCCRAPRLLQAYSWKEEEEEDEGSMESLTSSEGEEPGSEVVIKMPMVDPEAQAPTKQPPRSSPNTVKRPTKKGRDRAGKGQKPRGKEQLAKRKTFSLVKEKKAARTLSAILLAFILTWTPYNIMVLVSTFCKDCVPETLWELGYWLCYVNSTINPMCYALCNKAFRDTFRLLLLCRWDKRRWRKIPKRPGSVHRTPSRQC
# UniProt P28223, whole entry, looked up: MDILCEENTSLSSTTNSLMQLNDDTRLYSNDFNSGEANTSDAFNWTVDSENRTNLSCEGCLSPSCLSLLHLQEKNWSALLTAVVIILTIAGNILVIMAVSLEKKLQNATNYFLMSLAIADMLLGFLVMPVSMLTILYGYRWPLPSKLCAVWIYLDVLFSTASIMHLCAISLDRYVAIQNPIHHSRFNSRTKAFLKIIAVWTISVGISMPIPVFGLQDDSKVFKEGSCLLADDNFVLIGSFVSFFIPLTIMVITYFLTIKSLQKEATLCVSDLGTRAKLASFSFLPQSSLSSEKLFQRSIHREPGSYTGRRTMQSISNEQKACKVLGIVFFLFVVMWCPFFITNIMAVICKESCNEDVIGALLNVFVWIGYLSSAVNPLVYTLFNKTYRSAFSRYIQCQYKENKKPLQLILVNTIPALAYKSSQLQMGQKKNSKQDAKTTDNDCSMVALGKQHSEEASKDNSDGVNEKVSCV
# UniProt P14416, whole entry, looked up: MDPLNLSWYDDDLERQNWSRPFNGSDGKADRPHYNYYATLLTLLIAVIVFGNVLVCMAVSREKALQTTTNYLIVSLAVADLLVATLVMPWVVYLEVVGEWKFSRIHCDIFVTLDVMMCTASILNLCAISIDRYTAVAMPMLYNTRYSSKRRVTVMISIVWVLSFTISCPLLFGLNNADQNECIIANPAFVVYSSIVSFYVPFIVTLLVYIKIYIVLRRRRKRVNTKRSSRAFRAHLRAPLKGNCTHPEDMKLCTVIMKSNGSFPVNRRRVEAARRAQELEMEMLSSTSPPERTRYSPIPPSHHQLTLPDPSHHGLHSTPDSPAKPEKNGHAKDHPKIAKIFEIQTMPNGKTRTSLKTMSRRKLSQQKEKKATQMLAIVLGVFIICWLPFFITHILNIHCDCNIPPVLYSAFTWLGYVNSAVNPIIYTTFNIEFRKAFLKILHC
# Several values for one entry are separate records, joined by “and”; a condition that tells them apart may be missing. Equal entries are not always repeated. Inconclusive results, whose numbers are uncertain, are shown with a selection of clear calls. For some of these results: Potencies beside an inconclusive call are fits to weak or partial responses and may not hold up. The source holds several records for some structures; these can differ, active in one and inactive in another. Activity calls are given as the source filed them. Unless noted, calls come from the whole dose curve.
# Legend:
# [1] = Nuclear factor erythroid 2-related factor 2/antioxidant responsive element (Nrf2/ARE) small molecule agonists: luciferase reporter gene qHTS assay in human keratinocytes (AID 1919969); details: KeratinoSens HaCaT ARE-luciferase, luminescence, 24 h; activity, positive = activation: at 92.4 µM (top of the series); note: nearly all actives have a fitted effect of over 35% in size; note: potency is the fitted concentration of half-maximal effect; for activity, positive = activation: % is set by controls: 0 for no effect and ±100 for the full control effect
# [2] = p53 small molecule agonists, cell-based qHTS assay: qHTS cell viability counter screen (AID 1963581); note: nearly all actives have a fitted effect of over 45% in size; note: potency is the fitted concentration of half-maximal effect
# How it was run: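 Cells: HCT-116 with p53 response element-driven beta-lactamase. Treatment: 16 h, 37 C, compounds in DMSO. Read: CellTiter-Glo luminescence after 30 min RT.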
# [3] = p53 small molecule agonists, cell-based qHTS assay with rat liver microsomes: qHTS cell viability counter screen (AID 1963580); note: nearly all actives have a fitted effect of over 45% in size; note: potency is the fitted concentration of half-maximal effect
# How it was run: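 HCT-116 p53RE-bla, 4,000 cells/well, 5 h pre-incubation; cpd + rat liver microsomes 0.5 mg/mL + NADPH 0.5 mg/mL (final); 16 h, 37 C; CellTiter-Glo, 30 min RT; luminescence.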
# [4] = cAMP Responsive Elements (CRE) small molecule antagonists, cell-based qHTS assay (AID 1963591; active = well fitted inhibition curve with a large enough effect in the signal ratio in the repeat runs, not every such curve was filed as active; inconclusive = weak or mixed curves, or effect the other way; the % refers to the signal ratio; note: potency is the fitted concentration of half-maximal effect; for activity change, negative = inhibition: % is set by controls: 0 for no effect and ±100 for the full control effect); details: CRE-bla HEK293T, beta-lactamase FRET ratio
# How it was run: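 Antagonist mode: test compounds are co-incubated with the adenylyl cyclase activator NKH477 (0.25 uM final) on CRE-bla HEK293T cells for 3 h at 37 °C, followed by LiveBLAzer substrate loading.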
# [5] = target: Beta-2 adrenergic receptor (Homo sapiens) (UniProt P07550); test: Adrenergic beta2 receptor (ADRB2) small molecule agonists, cell-based qHTS assay (AID 1963593); details: CHO-ADRB2 cells, cAMP HTRF, 30 min; note: potency is the fitted concentration of half-maximal effect;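 for activation: CHO cells stably overexpressing human ADRB2; % is set by controls: 0 for no effect and ±100 for the full control effect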
# How it was run: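 CHO cells stably over-expressing ADRB2 were plated overnight at 37C, then dosed with compounds plus a stimulation mix containing 100uM IBMX and 25uM Ro-20-1724 for 0.5hr at room temperature. cAMP was measured by HTRF competition, 1hr.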
# [6] = cAMP Responsive Elements (CRE) small molecule agonists, cell-based qHTS assay (AID 1963590); details: CRE-bla HEK293T, beta-lactamase FRET ratio, 3 h; activation: at 92.4 µM (top of the series) unless noted; note: potency is the fitted concentration of half-maximal effect
# How it was run: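 Agonist mode qHTS in CRE-bla HEK 293T cells: compounds dosed from DMSO for 3 h at 37 C/5% CO2, followed by LiveBLAzer B/G FRET substrate for 2 h at room temperature.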
# [7] = p53 small molecule agonists, cell-based qHTS assay (AID 1963582; active = well fitted activation curve with a large enough effect in the signal ratio in the repeat runs, not every such curve was filed as active; inconclusive = weak or mixed curves; the % refers to the signal ratio; note: potency is the fitted concentration of half-maximal effect; for activation: % is set by controls: 0 for no effect and ±100 for the full control effect); details: HCT-116 p53RE-bla reporter, beta-lactamase FRET ratio, 16 h; activation: at 66 µM (top of the series) unless noted
# How it was run: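 Quantitative HTS in p53RE-bla cells: after a 5 h settling period, compounds delivered in DMSO were left on cells for 16 h at 37 C, and reporter induction was measured as fluorescence following 2 h substrate loading.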
# [8] = target: Muscarinic acetylcholine receptor M1 (Homo sapiens) (UniProt P11229); test: Cholinergic receptor muscarinic 1 (CHRM1) small molecule antagonists, cell-based qHTS assay (AID 1963588); note: potency is the fitted concentration of half-maximal effect; nearly all actives have a fitted effect of over 40% in size
# How it was run: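 CHRM1-CHO calcium-flux assay, antagonist mode. Cells were seeded 18 h, dye-loaded 1 h at 37 C and given compound for 5 min at RT, then acetylcholine was added at 50nM. FDSS fluorescence was read 3 min; 15 concentrations, three runs.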
# [9] = target: 5-hydroxytryptamine receptor 2A (Homo sapiens) (UniProt P28223); test: 5-hydroxytryptamine receptor 2A (HTR2A) small molecule antagonists, cell-based qHTS assay (AID 1963586); note: potency is the fitted concentration of half-maximal effect; nearly all actives have a fitted effect of over 45% in size
# How it was run: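 Antagonist-mode intracellular calcium assay: DOI (4 nM) added after 5 min compound pre-incubation at room temperature to dye-loaded HTR2A-CHO cells. Fluorescence followed for 3 min, sampled every second.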
# [10] = target: Beta-2 adrenergic receptor (Homo sapiens) (UniProt P07550); test: Adrenergic beta2 receptor (ADRB2) small molecule antagonists, cell-based qHTS assay (AID 1963592); details: CHO-ADRB2 cells, isoproterenol-stimulated cAMP HTRF ratio, 0.5 h; activity change, negative = inhibition: at 92.4 µM (top of the series) unless noted; note: % is set by controls: 0 for no effect and ±100 for the full control effect; nearly all actives have a fitted effect of over 50% in size
# How it was run: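 Cells (CHO, stable ADRB2 overexpression) incubated 18-20hr at 37C; compounds added from DMSO; agonist mix (1nM isoproterenol, 100uM IBMX, 25uM Ro-20-1724) added; 0.5hr RT; d2-cAMP and anti-cAMP-cryptate added; 1hr RT; 665/615 nm read.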
# [11] = target: D(2) dopamine receptor (Homo sapiens) (UniProt P14416); test: Dopamine D2 receptor (DRD2) small molecule agonists, cell-based qHTS assay (AID 1963594); details: HEK293-DRD2 cAMP HTRF, agonist mode, 30 min; activation: at 92.4 µM (top of the series) unless noted; note: % is set by controls: 0 for no effect and ±100 for the full control effect; nearly all actives have a fitted effect of over 35% in size
# How it was run: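 cAMP accumulation in DRD2-HEK293 cells measured by HTRF after 1 h detection; compounds added 10 min before NKH477 (200nM […]) forskolin-analogue stimulation, 30 min at room temperature, with Ro20-1724 present at 0.1 mM final.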
# [12] = activity change, negative = inhibition: at 92.4 µM (top of the series) unless noted
# [13] = activation: at 92.4 µM (top of the series) unless noted
smiles,measurement,setting,value
CCCC/C=C/CCCCO,Potency,[1],"inconclusive: 77 µM [activator, partial curve, poor fit]"
same,Potency,[2],"inconclusive: 1.02 µM [cytotoxic, single point]"
CC(=O)OCCOCCOCCOC(C)=O,Potency,[1],inconclusive: 67.7 µM [activator]
same,Potency,[3],"inconclusive: 5.69 µM [cytotoxic, single point]"
same,Potency,[4]; [12],inactive
same,Potency,[5]; [13],active: 53.8 µM
O=[N+]([O-])c1cccc(S(=O)(=O)O)c1,Potency,[1],"inconclusive: 55.3 µM [activator, single point]"
same,Potency,[3],"inconclusive: 4.65 µM [cytotoxic, single point]"
same,Potency,[6],"inconclusive: 49.3 µM [rising, partial curve]"
same,Potency,[4]; [12],"inconclusive: 49.3 µM [fluorescent, partial curve, poor fit]"
same,Potency,[5]; [13],inactive
Clc1ccc(C(Cn2ccnc2)OCc2c(Cl)cccc2Cl)c(Cl)c1 (stereo unspecified),Potency,[1],active: 11.9 µM
same,Potency,[2],"inconclusive: 0.089 µM [cytotoxic, full curve, poor fit]"
same,Potency,[7],inconclusive: 17.8 µM
same,Potency,[8],active: 11.6 µM
same,Potency,[4]; [12],"inconclusive: 33.5 µM [inhibitor, single point]"
ClC1=C(Cl)C(Cl)(Cl)C(Cl)=C1Cl,Potency,[1],inactive and active: 61.1 µM
same,Potency,[2],inactive
same,Potency,[7],inactive
O=C(OCCOCCOCCOC(=O)c1ccccc1)c1ccccc1,Potency,[1],"inconclusive: 68.6 µM [activator, single point]"
same,Potency,[3],inactive
same,Potency,[6],"inconclusive: 48.6 µM [rising, partial curve]"
same,"activity change, negative = inhibition",[4]; [12],inconclusive: 6.07%
same,Potency,[5]; [13],inactive
CCOC(=O)c1ccccc1O,Potency,[1],inactive
same,Potency,[2],"inconclusive: 1.99 µM [cytotoxic, full curve, poor fit]"
CCCC[N+](C)(CCCC)CCCC,Potency,[1],"inconclusive: 67.2 µM [activator, single point]"
same,Potency,[3],inactive
same,"activity change, negative = inhibition",[4]; [12],inconclusive: 10.8%
same,Potency,[5]; [13],inactive
Nc1nc2ccccc2n1Cc1ccc(F)cc1,Potency,[1],"inconclusive: 13.3 µM [activator, single point]"
same,Potency,[2],inactive
same,Potency,[7],inactive
same,Potency,[9],"inconclusive: 23.1 µM [inhibitor, single point]"
same,Potency,[6],inactive
same,activation,[5]; [13],inconclusive: -45.9% [at 42.5 µM]
O=C(O)CCCCC1CCSS1 (stereo unspecified),Potency,[1],inconclusive: 67.7 µM [activator]
same,Potency,[3],"inconclusive: 10.1 µM [cytotoxic, single point]"
same,Potency,[6],"inconclusive: 48.5 µM [rising, partial curve] and inconclusive: 29.8 µM [rising, partial curve]"
same,"activity change, negative = inhibition",[4]; at 42.4 µM (top of the series),inconclusive: 13.9%
same,"activity change, negative = inhibition",[4]; at 92.4 µM (top of the series),inconclusive: -7.48% and inconclusive: 15.9%
same,Potency,[5]; [13],"inconclusive: 67.7 µM [inhibitor, single point]"
same,activation,[5]; [13],inconclusive: 2.49%
CC(C)C(=O)O,Potency,[1],inactive
same,Potency,[3],inactive
same,Potency,[10],inactive
same,Potency,[5]; [13],inactive
same,Potency,[11],inactive
CC(C)COC(=O)CCCCC(=O)OCC(C)C,Potency,[1],inactive
same,Potency,[3],inactive
same,Potency,[4]; [12],inactive
same,activation,[5]; [13],inconclusive: -5.8%
O=[N+]([O-])c1ccc2ncccc2c1,Potency,[1],"inconclusive: 68.8 µM [activator, partial curve, poor fit]"
same,Potency,[2],inactive
same,Potency,[7],"inconclusive: 25.8 µM [falling, partial curve, poor fit]"
same,Potency,[6],inactive
same,Potency,[4]; [12],"inconclusive: 0.218 µM [fluorescent, single point]"
same,Potency,[10],inactive
same,Potency,[5]; [13],inconclusive: 6.88 µM [inhibitor]
c1c[nH]cn1,Potency,[1],"inconclusive: 48.6 µM [activator, partial curve, poor fit]"
same,Potency,[3],"inconclusive: 1.93 µM [cytotoxic, single point]"
same,Potency,[6],inactive
same,activation,[5]; [13],inconclusive: 23.8% and inconclusive: 2.49%
COC(=O)/C=C/c1ccccc1,Potency,[1],"inconclusive: 68.6 µM [activator, single point]"
same,Potency,[3],"inconclusive: 51.3 µM [cytotoxic, single point]"
same,activation,[5]; [13],inconclusive: -15.2%
same,activation,[5]; at 92.4 µM (top of the series),inactive: 15.2%
COC(C)CCO (stereo unspecified),Potency,[1],"inconclusive: 27.3 µM [activator, single point]"
same,Potency,[2],inactive
CN(C)c1cccc(O)c1,Potency,[1],active: 43.9 µM
same,Potency,[3],"inconclusive: 18.5 µM [cytotoxic, single point]"
same,Potency,[6],inactive
same,"activity change, negative = inhibition",[4]; [12],inconclusive: -1.7%
same,Potency,[10],inactive
same,activation,[5]; [13],inconclusive: -0.26%
same,activation,[5]; at 92.4 µM (top of the series),inactive: -55.7%

# Quoted at random: 3 entries already listed.
smiles,measurement,setting,value
O=C(OCCOCCOCCOC(=O)c1ccccc1)c1ccccc1,"activity change, negative = inhibition",[4]; [12],inconclusive: 6.07%
CCOC(=O)c1ccccc1O,Potency,[2],"inconclusive: 1.99 µM [cytotoxic, full curve, poor fit]"
CC(C)COC(=O)CCCCC(=O)OCC(C)C,Potency,[3],inactive
